Measured values: article PMC4619656
No constants are given. Whether binding was seen depends on the method and setting. Binding seen in cells or lysates may run through a third protein. Some binding calls cover weakened binding; strength is not graded here.

The chains behind the UniProt entries cited, without tags or fusion partners.
UniProt Q96KQ7: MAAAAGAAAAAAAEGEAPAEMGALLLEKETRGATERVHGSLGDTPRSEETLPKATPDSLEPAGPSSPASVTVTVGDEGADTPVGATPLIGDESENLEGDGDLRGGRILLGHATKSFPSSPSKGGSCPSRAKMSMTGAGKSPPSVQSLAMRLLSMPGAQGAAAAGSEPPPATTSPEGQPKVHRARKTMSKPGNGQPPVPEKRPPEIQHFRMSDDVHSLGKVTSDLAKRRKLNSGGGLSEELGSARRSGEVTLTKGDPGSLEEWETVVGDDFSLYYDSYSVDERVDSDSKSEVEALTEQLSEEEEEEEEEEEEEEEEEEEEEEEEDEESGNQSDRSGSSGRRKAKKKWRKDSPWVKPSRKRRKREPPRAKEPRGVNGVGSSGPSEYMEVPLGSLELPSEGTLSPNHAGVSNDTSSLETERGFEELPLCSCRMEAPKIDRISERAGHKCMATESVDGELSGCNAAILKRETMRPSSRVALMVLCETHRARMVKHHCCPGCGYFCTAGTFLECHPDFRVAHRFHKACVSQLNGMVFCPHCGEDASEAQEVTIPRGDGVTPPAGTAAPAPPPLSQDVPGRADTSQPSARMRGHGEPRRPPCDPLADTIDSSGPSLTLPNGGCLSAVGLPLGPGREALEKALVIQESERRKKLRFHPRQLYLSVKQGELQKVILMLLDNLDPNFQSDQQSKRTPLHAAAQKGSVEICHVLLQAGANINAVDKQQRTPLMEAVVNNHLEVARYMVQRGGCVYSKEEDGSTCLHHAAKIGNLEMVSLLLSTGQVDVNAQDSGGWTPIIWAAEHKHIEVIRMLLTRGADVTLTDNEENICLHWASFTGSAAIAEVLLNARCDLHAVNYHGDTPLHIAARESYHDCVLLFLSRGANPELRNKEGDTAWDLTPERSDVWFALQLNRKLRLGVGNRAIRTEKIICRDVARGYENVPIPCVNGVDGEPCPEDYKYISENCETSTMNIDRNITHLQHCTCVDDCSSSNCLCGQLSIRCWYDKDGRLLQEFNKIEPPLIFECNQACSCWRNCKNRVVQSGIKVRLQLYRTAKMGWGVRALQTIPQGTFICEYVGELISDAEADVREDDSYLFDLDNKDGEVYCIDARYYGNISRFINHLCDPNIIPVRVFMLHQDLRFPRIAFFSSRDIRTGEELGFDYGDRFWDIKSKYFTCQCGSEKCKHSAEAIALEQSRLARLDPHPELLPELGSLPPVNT
UniProt P48431: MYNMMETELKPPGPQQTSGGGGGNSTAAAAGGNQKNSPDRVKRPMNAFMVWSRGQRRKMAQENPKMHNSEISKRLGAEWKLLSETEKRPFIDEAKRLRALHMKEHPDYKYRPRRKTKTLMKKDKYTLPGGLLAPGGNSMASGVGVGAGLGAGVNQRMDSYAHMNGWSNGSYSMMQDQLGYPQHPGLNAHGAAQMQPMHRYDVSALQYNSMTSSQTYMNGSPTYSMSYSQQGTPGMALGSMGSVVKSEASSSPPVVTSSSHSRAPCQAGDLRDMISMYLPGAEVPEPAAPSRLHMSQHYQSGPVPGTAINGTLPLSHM

How the values were obtained:
[1] = biological target: Lysine methyltransferase G9a (human (endogenous in MCF7)) (UniProt Q96KQ7); experiment: co-IP; endogenous proteins in MCF7 total protein extract (500 ug); Co-IP buffer 20 mM Tris-HCl, 137 mM NaCl, 1% Triton X-100, 2 mM EDTA; immunoprecipitated with anti-Sox2 or anti-G9a antibody overnight at 4°C, protein A/G-plus beads, Western blot
[2] = biological target: Sox2 (human (endogenous in MCF7)) (UniProt P48431); experiment: as above

binding [1] | binding [2] | Substance
binds |  | Sox2 (from UniProt P48431 1-317)
 | binds | Lysine methyltransferase G9a (from UniProt Q96KQ7 1-1210)
